Source: paper PMC12567083, “N-terminal oligomerization drives HDAC4 nuclear condensation and neurodevelopmental dysfunction in Drosophila” (Open Biology, 2025)
Positions count from the first letter of the chain named. Names and notes keep the numbering of the source. Results are given in words; binding and its absence hold for the method and conditions named. Binding seen in cells or lysates may run through a third protein. Some results given as binding are weak or reduced against the parent protein; the word gives no strength. Where a sequence is shown, tags or fusion partners need not be part of it. Values belong to the binder of their own block, whether it stands above or below them.

Target: T1, GFP-HDAC4^WT (GFP-tagged wild-type Drosophila HDAC4) (Drosophila) (UniProt Q9VYF3)
T1 sequence: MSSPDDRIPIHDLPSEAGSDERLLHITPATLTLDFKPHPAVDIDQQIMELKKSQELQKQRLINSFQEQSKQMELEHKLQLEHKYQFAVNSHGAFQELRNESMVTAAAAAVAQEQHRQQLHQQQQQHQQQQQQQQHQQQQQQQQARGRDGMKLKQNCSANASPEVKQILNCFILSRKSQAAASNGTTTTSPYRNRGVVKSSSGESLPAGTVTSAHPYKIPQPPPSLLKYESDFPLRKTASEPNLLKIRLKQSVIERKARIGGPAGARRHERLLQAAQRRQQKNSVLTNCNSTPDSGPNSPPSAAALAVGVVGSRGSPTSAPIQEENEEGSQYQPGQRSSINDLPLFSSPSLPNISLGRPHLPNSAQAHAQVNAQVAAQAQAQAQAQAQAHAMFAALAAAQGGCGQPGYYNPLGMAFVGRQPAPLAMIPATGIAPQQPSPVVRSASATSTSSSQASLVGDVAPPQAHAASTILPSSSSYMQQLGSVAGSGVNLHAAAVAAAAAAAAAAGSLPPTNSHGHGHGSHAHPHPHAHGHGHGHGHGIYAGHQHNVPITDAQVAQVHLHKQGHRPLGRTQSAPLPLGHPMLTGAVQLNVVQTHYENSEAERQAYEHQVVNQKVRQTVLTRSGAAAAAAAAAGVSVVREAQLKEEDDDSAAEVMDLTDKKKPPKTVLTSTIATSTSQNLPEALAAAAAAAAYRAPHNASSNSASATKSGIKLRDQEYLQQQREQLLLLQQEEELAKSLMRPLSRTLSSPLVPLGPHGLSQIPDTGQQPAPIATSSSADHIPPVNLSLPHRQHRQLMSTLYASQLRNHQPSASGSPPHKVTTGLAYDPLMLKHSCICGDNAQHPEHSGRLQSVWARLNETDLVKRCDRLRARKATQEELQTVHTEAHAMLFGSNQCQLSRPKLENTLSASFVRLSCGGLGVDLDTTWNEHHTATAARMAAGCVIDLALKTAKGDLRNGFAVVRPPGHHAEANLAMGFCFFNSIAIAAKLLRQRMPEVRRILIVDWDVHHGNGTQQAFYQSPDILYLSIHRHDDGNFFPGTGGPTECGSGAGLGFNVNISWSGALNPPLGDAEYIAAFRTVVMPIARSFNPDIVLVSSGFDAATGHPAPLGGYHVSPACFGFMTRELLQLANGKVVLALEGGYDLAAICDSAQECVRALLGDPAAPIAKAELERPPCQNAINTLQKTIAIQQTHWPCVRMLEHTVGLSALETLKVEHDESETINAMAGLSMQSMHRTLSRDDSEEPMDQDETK
Assay: co-IP; GFP-HDAC4^WT precipitated with anti-GFP on protein A/G magnetic beads from 2 mg whole cell lysate of adult fly heads co-expressing Myc-tagged HDAC4 (elav-GAL4), overnight at 4°C; blot for Myc

- binding: binds
B1: HDAC4^S69F-Myc (protein, UniProt Q9VYF3 1-1252)
chain: T1 sequence with S69F

- binding: binds
B2: HDAC4^WT-Myc (wild-type Drosophila HDAC4 with C-terminal 6x Myc tag) (protein, UniProt Q9VYF3 1-1252)
chain: T1 sequence
